Data on two molecules can be found in publication PMC3192677.

The target in assay [1] is T1, Myc-tagged full length mouse Asb-4 (ankyrin repeat and SOCS box containing protein 4) (mouse) (UniProt Q9WV71).
T1 sequence: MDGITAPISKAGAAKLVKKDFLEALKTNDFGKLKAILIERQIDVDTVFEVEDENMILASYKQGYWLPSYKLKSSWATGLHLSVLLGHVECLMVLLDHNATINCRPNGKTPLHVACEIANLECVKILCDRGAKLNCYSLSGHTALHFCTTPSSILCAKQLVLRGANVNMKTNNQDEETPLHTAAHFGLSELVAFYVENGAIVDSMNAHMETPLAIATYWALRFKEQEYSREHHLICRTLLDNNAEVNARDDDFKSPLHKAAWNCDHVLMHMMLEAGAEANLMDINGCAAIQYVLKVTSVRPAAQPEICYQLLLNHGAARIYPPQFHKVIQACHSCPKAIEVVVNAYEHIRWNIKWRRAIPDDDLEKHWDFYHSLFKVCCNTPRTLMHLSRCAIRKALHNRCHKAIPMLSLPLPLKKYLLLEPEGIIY
The assay can be described thus: co-IP; HEK293 cells co-transfected with Myc-Asb-4 and Flag-IRS4; lysis buffer 150 mM NaCl, 20 mM Na2HPO4, pH 7.4, 1% Triton X-100; precipitated with anti-Flag-M2 or anti-Myc antibody conjugated agarose, blotted with anti-Myc or anti-Flag.

Assay [2] deals with T2, Flag-tagged full length mouse IRS4 (insulin receptor substrate 4) (mouse) (UniProt Q9Z0Y7).
T2 sequence: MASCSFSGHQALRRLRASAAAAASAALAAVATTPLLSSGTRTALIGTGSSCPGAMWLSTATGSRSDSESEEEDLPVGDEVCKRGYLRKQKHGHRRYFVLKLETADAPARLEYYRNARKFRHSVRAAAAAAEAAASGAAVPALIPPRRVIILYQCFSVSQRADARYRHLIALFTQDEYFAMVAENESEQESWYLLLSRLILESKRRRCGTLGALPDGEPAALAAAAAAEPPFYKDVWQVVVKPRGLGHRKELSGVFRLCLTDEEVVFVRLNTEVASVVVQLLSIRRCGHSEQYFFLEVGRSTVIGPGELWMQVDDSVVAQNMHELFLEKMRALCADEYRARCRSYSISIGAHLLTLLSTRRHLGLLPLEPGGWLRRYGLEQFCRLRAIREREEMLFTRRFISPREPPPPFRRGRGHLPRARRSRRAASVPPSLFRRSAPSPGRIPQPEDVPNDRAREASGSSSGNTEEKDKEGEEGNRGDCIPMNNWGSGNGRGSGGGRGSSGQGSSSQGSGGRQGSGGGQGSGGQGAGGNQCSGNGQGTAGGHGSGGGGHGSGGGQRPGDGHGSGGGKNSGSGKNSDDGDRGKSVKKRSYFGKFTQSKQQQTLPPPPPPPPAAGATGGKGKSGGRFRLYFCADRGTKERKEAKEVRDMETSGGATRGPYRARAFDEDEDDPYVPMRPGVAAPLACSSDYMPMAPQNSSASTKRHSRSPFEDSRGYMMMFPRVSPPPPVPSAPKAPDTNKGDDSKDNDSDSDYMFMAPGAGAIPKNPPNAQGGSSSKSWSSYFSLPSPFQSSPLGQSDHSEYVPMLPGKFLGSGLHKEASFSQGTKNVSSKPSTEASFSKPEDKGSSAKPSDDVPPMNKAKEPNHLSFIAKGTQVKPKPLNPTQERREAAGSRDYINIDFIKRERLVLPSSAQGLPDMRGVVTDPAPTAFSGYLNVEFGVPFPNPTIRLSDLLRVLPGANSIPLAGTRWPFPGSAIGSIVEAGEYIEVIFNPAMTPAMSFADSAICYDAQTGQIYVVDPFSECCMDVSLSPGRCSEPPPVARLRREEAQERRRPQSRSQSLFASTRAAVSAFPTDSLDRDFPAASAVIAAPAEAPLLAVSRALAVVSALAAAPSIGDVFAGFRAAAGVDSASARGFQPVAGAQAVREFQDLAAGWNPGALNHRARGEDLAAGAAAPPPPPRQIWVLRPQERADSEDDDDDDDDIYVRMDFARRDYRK
The description is as above.

These are yes or no findings as the source states them, for the method shown. Binding seen in cells or lysates may run through a third protein. Some entries that bind do so weakly or less than the wild type. Sequences can lack the tags named with a protein.

B1: Flag-tagged full length mouse IRS4 (insulin receptor substrate 4) (protein, UniProt Q9Z0Y7 1-1216)
chain: T2 sequence
On to B1, for which the binding result in assay [1] is given as “binds”.

B2: Myc-tagged full length mouse Asb-4 (ankyrin repeat and SOCS box containing protein 4) (protein, UniProt Q9WV71 1-426)
chain: T1 sequence
As to B2, in assay [2], the binding result was “binds”.
